Laboratory results from patent US11254904B2, “Culture material and use thereof” (MITSUI CHEMICALS, INC., priority 2019, dated 2022).
For at least one compound, name, drawing or mass did not settle the structure.

What was measured:
[1] = Evaluation of drug sorption (drug residual rate); format: physicochemical; conditions: 10 μmol/L drug solution, 0.5 ml per well, 23° C., 2 days; average of three wells
Experimental: Thereafter, the drug solutions were recovered. The concentrations of the recovered drug solutions were measured by a fluorescence analysis method or LC/MS. The drug residual rate, which was the concentration of the measured recovered drug solution with respect to the concentration of the drug solution before added to the vessel, was calculated. The average value of the drug residual rate in three wells was given. For the drugs 1 to 3 for evaluation, concentration analysis was performed by a fluorescence analysis method.

[2] = Evaluation of drug sorption (drug residual rate); format: physicochemical; conditions: 10 μmol/L drug solution, 0.5 ml per well, 23° C., 2 days; average of three wells; remark: listed apart in the source
Experimental: Thereafter, the drug solutions were recovered. The concentrations of the recovered drug solutions were measured by a fluorescence analysis method or LC/MS. The drug residual rate, which was the concentration of the measured recovered drug solution with respect to the concentration of the drug solution before added to the vessel, was calculated. The average value of the drug residual rate in three wells was given. For the drugs 1 to 3 for evaluation, concentration analysis was performed by a fluorescence analysis method. For the drugs 4 to 8 for evaluation, concentration analysis was performed by LC/MS. <Fluorescence Analysis Conditions> • Evaluation apparatus: FP-6600 (spectrofluorometer, manufactured by JASCO Corporation) • Used cell: Micro cell made of quartz • Bandwidth: excitation side: 5 nm, fluorescence side: 6 nm • Sensitivity (PMT voltage): 400 V • Excitation wavelength: rhodamine B 555 nm <LC/MS Conditions> • Apparatus: Acquity UPLC I-class system/TQ-S micro(water) • Ionization method: electrospray ionization (ESI), positive and negative ion detection A drug sorption test was performed on the 24-well TCPS culture vessel (manufactured by Corning Incorporated, made of polystyrene (PS)) used in Comparative Example 4 and the 24-well PDMS culture vessel (product name: […] (trademark) model number: […]

Cc1c(C)c2c(c(C)c1O)CCC(C)(COc1ccc(CC3SC(=O)NC3=O)cc1)O2 (stereo not drawn) [Troglitazone, troglitazone]
drug residual rate, 4-methyl-1-pentene Polymer Vessel (Example 11) [1]: 64% | drug residual rate, PDMS Vessel (Comparative Example 8) [2]: 1% | drug residual rate, PS Vessel (Comparative Example 7) [2]: 65%
